# Source: the supplement of paper PMC8728848
# Some of the results follow.
# B1: PX14343I-pdi-501-30-501 (Parabacteroides distasonis) (protein)
# chain: SDQYSTETFWKTKEHASAGIMGCYNALKLWRSLHTMEFDMLTANAMPYNEANGTQAIGKGEHLSTTALIGSLWKNCYVGIGRTNTFIANVGGVDMDESEKAKMVGEAKFLRAFYYLSLVDKFGGVPLIIDAPNADEQAELPRNSKEEVVNQIVKDLEEAAAVLPDTYASSDLGRATKGAALALKARTLLYNSRWAEAAQAAKQVMESGVYQLFNDYRHFFSEDNKYNCEVIFDIEAKLPEYPTDYDQNIWRLNRPAPLKELVDTYLCVDGKTIEESPLYDPTRPYENRDPRLLKSIVCIGYPYLGKTITKEDVATTGFGVKKYTSYEDDVTIPLVERSAFNFILIRYAEVLLTYAEAQNEASGPDQSVYDAINQLRRRPDINMPEVPKGLTKDQMREVIRRERRIELTFEGLYYSDILRWKTAEKENNGMMHNYEGIEVVKRSFNPKRDYLWPIPYNQTVLNPNLEQNPNWD
# Tests used:
# Experiment in all cases: glycan array binding signal (z-score within array); higher = stronger binding
# Conditions in all cases: glycan notation: IUPAC condensed, linker removed
# Fuc(a1-2)Gal = biological target: Fuc(a1-2)Gal
# Procedure, shortened: (§1)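 From the Consortium for Functional Glycomics database, 3228 arrays were curated, keeping only those whose protein sequence was available. Binding is given as a within-array Z-score averaged across arrays sharing a protein sequence and across linkers. Negative Z-scores can be read as non-binding.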
# Fuc(a1-2)Gal(b1-3)GalNAc = biological target: Fuc(a1-2)Gal(b1-3)GalNAc
# Procedure, shortened: as §1
# [1] = biological target: Fuc(a1-2)Gal(b1-3)GalNAc(a1-3)[Fuc(a1-2)]Gal(b1-4)Glc
# Procedure, shortened: as §1
# [2] = biological target: Fuc(a1-2)Gal(b1-3)GalNAc(a1-3)[Fuc(a1-2)]Gal(b1-4)GlcNAc
# Procedure, shortened: as §1
# [3] = biological target: Fuc(a1-2)Gal(b1-3)GalNAc(b1-3)Gal
# Procedure, shortened: as §1
# [4] = biological target: Fuc(a1-2)Gal(b1-3)GalNAc(b1-3)Gal(a1-4)Gal(b1-4)Glc
# Procedure, shortened: as §1
# [5] = biological target: Fuc(a1-2)Gal(b1-3)GalNAc(b1-4)[Neu5Ac(a2-3)]Gal(b1-4)Glc
# Procedure, shortened: as §1
# Fuc(a1-2)Gal(b1-3)GlcNAc = biological target: Fuc(a1-2)Gal(b1-3)GlcNAc
# Procedure, shortened: as §1
# [6] = biological target: Fuc(a1-2)Gal(b1-3)GlcNAc(b1-2)Man(a1-3)[Fuc(a1-2)Gal(b1-3)GlcNAc(b1-2)Man(a1-6)]Man(b1-4)GlcNAc(b1-4)GlcNAc
# Procedure, shortened: as §1
# [7] = biological target: Fuc(a1-2)Gal(b1-3)GlcNAc(b1-2)Man(a1-3)[Fuc(a1-2)Gal(b1-3)GlcNAc(b1-2)Man(a1-6)]Man(b1-4)GlcNAc(b1-4)[Fuc(a1-6)]GlcNAc
# Procedure, shortened: as §1
# [8] = biological target: Fuc(a1-2)Gal(b1-3)GlcNAc(b1-3)Gal(b1-4)Glc
# Procedure, shortened: as §1
# [9] = biological target: Fuc(a1-2)Gal(b1-3)GlcNAc(b1-3)GalNAc
# Procedure, shortened: as §1
# [10] = biological target: Fuc(a1-2)Gal(b1-3)GlcNAc(b1-3)[Fuc(a1-2)Gal(b1-3)GlcNAc(b1-6)]GalNAc
# Procedure, shortened: as §1
# [11] = biological target: Fuc(a1-2)Gal(b1-3)GlcNAc(b1-3)[Gal(b1-4)GlcNAc(b1-6)]Gal(b1-4)Glc
# Procedure, shortened: as §1
# [12] = biological target: Fuc(a1-2)Gal(b1-3)GlcNAc(b1-3)[Neu5Ac(a2-6)Gal(b1-4)GlcNAc(b1-6)]Gal(b1-4)Glc
# Procedure, shortened: as §1
# [13] = biological target: Fuc(a1-2)Gal(b1-3)GlcNAc6S
# Procedure, shortened: as §1
# [14] = biological target: Fuc(a1-2)Gal(b1-3)[Fuc(a1-4)]GlcNAc
# Procedure, shortened: as §1
# [15] = biological target: Fuc(a1-2)Gal(b1-3)[Fuc(a1-4)]GlcNAc(b1-2)Man(a1-3)[Fuc(a1-2)Gal(b1-3)[Fuc(a1-4)]GlcNAc(b1-2)Man(a1-3)]Man(b1-4)GlcNAc(b1-4)GlcNAc
# Procedure, shortened: as §1
# [16] = biological target: Fuc(a1-2)Gal(b1-3)[Fuc(a1-4)]GlcNAc(b1-2)Man(a1-3)[Fuc(a1-2)Gal(b1-3)[Fuc(a1-4)]GlcNAc(b1-2)Man(a1-6)]Man(b1-4)GlcNAc(b1-4)[Fuc(a1-6)]GlcNAc(b1-4)[Fuc(a1-6)]GlcNAc
# Procedure, shortened: as §1
# [17] = biological target: Fuc(a1-2)Gal(b1-3)[Fuc(a1-4)]GlcNAc(b1-3)[Fuc(a1-3)[Gal(b1-4)]GlcNAc(b1-6)]Gal(b1-4)Glc
# Procedure, shortened: as §1
# [18] = biological target: Fuc(a1-2)Gal(b1-3)[Fuc(a1-4)]GlcNAc(b1-3)[Gal(b1-4)GlcNAc(b1-6)]Gal(b1-4)Glc
# Procedure, shortened: as §1
# Fuc(a1-2)Gal(b1-4)Glc = biological target: Fuc(a1-2)Gal(b1-4)Glc
# Procedure, shortened: as §1
# Fuc(a1-2)Gal(b1-4)Glc6S = biological target: Fuc(a1-2)Gal(b1-4)Glc6S
# Procedure, shortened: as §1
# Fuc(a1-2)Gal(b1-4)GlcNAc = biological target: Fuc(a1-2)Gal(b1-4)GlcNAc
# Procedure, shortened: as §1
# [19] = biological target: Fuc(a1-2)Gal(b1-4)GlcNAc(b1-2)Man
# Procedure, shortened: as §1
# [20] = biological target: Fuc(a1-2)Gal(b1-4)GlcNAc(b1-2)Man(a1-3)[Fuc(a1-2)Gal(b1-4)GlcNAc(b1-2)Man(a1-6)]Man(b1-4)GlcNAc(b1-4)GlcNAc
# Procedure, shortened: as §1
# [21] = biological target: Fuc(a1-2)Gal(b1-4)GlcNAc(b1-2)Man(a1-3)[Fuc(a1-2)Gal(b1-4)GlcNAc(b1-2)Man(a1-6)]Man(b1-4)GlcNAc(b1-4)[Fuc(a1-6)]GlcNAc
# Procedure, shortened: as §1
# [22] = biological target: Fuc(a1-2)Gal(b1-4)GlcNAc(b1-2)[Fuc(a1-2)Gal(b1-4)GlcNAc(b1-4)]Man(a1-3)[Fuc(a1-2)Gal(b1-4)GlcNAc(b1-2)Man(a1-6)]Man(b1-4)GlcNAc(b1-4)GlcNAc
# Procedure, shortened: as §1
# [23] = biological target: Fuc(a1-2)Gal(b1-4)GlcNAc(b1-3)Gal(b1-4)GlcNAc
# Procedure, shortened: as §1
# [24] = biological target: Fuc(a1-2)Gal(b1-4)GlcNAc(b1-3)Gal(b1-4)GlcNAc(b1-2)Man(a1-3)[Fuc(a1-2)Gal(b1-4)GlcNAc(b1-3)Gal(b1-4)GlcNAc(b1-2)Man(a1-6)]Man(b1-4)GlcNAc(b1-4)GlcNAc
# Procedure, shortened: as §1
# [25] = biological target: Fuc(a1-2)Gal(b1-4)GlcNAc(b1-3)Gal(b1-4)GlcNAc(b1-3)Gal(b1-4)GlcNAc
# Procedure, shortened: as §1
# [26] = biological target: Fuc(a1-2)Gal(b1-4)GlcNAc(b1-3)GalNAc
# Procedure, shortened: as §1
# [27] = biological target: Fuc(a1-2)Gal(b1-4)GlcNAc(b1-3)[Fuc(a1-2)Gal(b1-4)GlcNAc(b1-6)]GalNAc
# Procedure, shortened: as §1
# [28] = biological target: Fuc(a1-2)Gal(b1-4)GlcNAc(b1-3)[Fuc(a1-3)[Gal(b1-4)]GlcNAc(b1-6)]Gal(b1-4)Glc
# Procedure, shortened: as §1
# [29] = biological target: Fuc(a1-2)Gal(b1-4)GlcNAc(b1-6)GalNAc
# Procedure, shortened: as §1
# [30] = biological target: Fuc(a1-2)Gal(b1-4)GlcNAc6S
# Procedure, shortened: as §1
# [31] = biological target: Fuc(a1-2)Gal(b1-4)[Fuc(a1-3)]GlcNAc
# Procedure, shortened: as §1
# [32] = biological target: Fuc(a1-2)Gal(b1-4)[Fuc(a1-3)]GlcNAc(b1-2)Man(a1-3)[Fuc(a1-2)Gal(b1-4)[Fuc(a1-3)]GlcNAc(b1-2)Man(a1-6)]Man(b1-4)GlcNAc(b1-4)[Fuc(a1-6)]GlcNAc
# Procedure, shortened: as §1
# [33] = biological target: Fuc(a1-2)Gal(b1-4)[Fuc(a1-3)]GlcNAc(b1-2)[Fuc(a1-2)Gal(b1-4)[Fuc(a1-3)]GlcNAc(b1-4)]Man(a1-3)[Fuc(a1-2)Gal(b1-4)[Fuc(a1-3)]GlcNAc(b1-2)Man(a1-6)]Man(b1-4)GlcNAc(b1-4)GlcNAc
# Procedure, shortened: as §1
# [34] = biological target: Fuc(a1-2)Gal(b1-4)[Fuc(a1-3)]GlcNAc(b1-3)Gal(b1-4)[Fuc(a1-3)]GlcNAc
# Procedure, shortened: as §1
# [35] = biological target: Fuc(a1-2)Gal(b1-4)[Fuc(a1-3)]GlcNAc(b1-3)Gal(b1-4)[Fuc(a1-3)]GlcNAc(b1-3)Gal(b1-4)[Fuc(a1-3)]GlcNAc
# Procedure, shortened: as §1
# [36] = biological target: Fuc(a1-2)Gal(b1-4)[Fuc(a1-3)]GlcNAc(b1-3)GalNAc
# Procedure, shortened: as §1
# [37] = biological target: Fuc(a1-2)Gal(b1-4)[Fuc(a1-3)]GlcNAc(b1-3)[Neu5Ac(a2-6)Gal(b1-4)GlcNAc(b1-6)]Gal(b1-4)Glc
# Procedure, shortened: as §1
# [38] = biological target: Fuc(a1-2)Gal3S(b1-4)GlcNAc
# Procedure, shortened: as §1
# [39] = biological target: Fuc(a1-2)Gal6S(b1-3)GlcNAc
# Procedure, shortened: as §1
binder,measurement,setting,value
B1,glycan array binding signal (z-score),Fuc(a1-2)Gal,-0.249
same,glycan array binding signal (z-score),Fuc(a1-2)Gal(b1-3)GalNAc,-0.188
same,glycan array binding signal (z-score),[1],-0.132
same,glycan array binding signal (z-score),[2],0.236
same,glycan array binding signal (z-score),[3],-0.11
same,glycan array binding signal (z-score),[4],-0.216
same,glycan array binding signal (z-score),[5],0.508
same,glycan array binding signal (z-score),Fuc(a1-2)Gal(b1-3)GlcNAc,-0.248
same,glycan array binding signal (z-score),[6],1.95
same,glycan array binding signal (z-score),[7],-0.722
same,glycan array binding signal (z-score),[8],0.051
same,glycan array binding signal (z-score),[9],-1.16
same,glycan array binding signal (z-score),[10],-0.183
same,glycan array binding signal (z-score),[11],-0.005
same,glycan array binding signal (z-score),[12],0.025
same,glycan array binding signal (z-score),[13],0.8
same,glycan array binding signal (z-score),[14],-0.308
same,glycan array binding signal (z-score),[15],0.312
same,glycan array binding signal (z-score),[16],-1.15
same,glycan array binding signal (z-score),[17],-0.886
same,glycan array binding signal (z-score),[18],-0.601
same,glycan array binding signal (z-score),Fuc(a1-2)Gal(b1-4)Glc,0.184
same,glycan array binding signal (z-score),Fuc(a1-2)Gal(b1-4)Glc6S,0.395
same,glycan array binding signal (z-score),Fuc(a1-2)Gal(b1-4)GlcNAc,-0.723
same,glycan array binding signal (z-score),[19],-0.202
same,glycan array binding signal (z-score),[20],0.226
same,glycan array binding signal (z-score),[21],-0.133
same,glycan array binding signal (z-score),[22],1.69
same,glycan array binding signal (z-score),[23],0.519
same,glycan array binding signal (z-score),[24],0.328
same,glycan array binding signal (z-score),[25],-0.429
same,glycan array binding signal (z-score),[26],0.082
same,glycan array binding signal (z-score),[27],0.509
same,glycan array binding signal (z-score),[28],-0.159
same,glycan array binding signal (z-score),[29],-1.54
same,glycan array binding signal (z-score),[30],-0.223
same,glycan array binding signal (z-score),[31],-0.321
same,glycan array binding signal (z-score),[32],2.6
same,glycan array binding signal (z-score),[33],-0.532
same,glycan array binding signal (z-score),[34],-0.634
same,glycan array binding signal (z-score),[35],-0.573
same,glycan array binding signal (z-score),[36],-0.465
same,glycan array binding signal (z-score),[37],-0.696
same,glycan array binding signal (z-score),[38],-0.677
same,glycan array binding signal (z-score),[39],0.393
